Results: patent publication US20180147232A1
These are yes or no findings as the source states them, for the method shown. In cells and extracts the contact can be indirect. Some binding calls cover weakened binding; strength is not graded here.

Chains of the proteins cited; added tags and fusions are not shown.
UniProt P49815: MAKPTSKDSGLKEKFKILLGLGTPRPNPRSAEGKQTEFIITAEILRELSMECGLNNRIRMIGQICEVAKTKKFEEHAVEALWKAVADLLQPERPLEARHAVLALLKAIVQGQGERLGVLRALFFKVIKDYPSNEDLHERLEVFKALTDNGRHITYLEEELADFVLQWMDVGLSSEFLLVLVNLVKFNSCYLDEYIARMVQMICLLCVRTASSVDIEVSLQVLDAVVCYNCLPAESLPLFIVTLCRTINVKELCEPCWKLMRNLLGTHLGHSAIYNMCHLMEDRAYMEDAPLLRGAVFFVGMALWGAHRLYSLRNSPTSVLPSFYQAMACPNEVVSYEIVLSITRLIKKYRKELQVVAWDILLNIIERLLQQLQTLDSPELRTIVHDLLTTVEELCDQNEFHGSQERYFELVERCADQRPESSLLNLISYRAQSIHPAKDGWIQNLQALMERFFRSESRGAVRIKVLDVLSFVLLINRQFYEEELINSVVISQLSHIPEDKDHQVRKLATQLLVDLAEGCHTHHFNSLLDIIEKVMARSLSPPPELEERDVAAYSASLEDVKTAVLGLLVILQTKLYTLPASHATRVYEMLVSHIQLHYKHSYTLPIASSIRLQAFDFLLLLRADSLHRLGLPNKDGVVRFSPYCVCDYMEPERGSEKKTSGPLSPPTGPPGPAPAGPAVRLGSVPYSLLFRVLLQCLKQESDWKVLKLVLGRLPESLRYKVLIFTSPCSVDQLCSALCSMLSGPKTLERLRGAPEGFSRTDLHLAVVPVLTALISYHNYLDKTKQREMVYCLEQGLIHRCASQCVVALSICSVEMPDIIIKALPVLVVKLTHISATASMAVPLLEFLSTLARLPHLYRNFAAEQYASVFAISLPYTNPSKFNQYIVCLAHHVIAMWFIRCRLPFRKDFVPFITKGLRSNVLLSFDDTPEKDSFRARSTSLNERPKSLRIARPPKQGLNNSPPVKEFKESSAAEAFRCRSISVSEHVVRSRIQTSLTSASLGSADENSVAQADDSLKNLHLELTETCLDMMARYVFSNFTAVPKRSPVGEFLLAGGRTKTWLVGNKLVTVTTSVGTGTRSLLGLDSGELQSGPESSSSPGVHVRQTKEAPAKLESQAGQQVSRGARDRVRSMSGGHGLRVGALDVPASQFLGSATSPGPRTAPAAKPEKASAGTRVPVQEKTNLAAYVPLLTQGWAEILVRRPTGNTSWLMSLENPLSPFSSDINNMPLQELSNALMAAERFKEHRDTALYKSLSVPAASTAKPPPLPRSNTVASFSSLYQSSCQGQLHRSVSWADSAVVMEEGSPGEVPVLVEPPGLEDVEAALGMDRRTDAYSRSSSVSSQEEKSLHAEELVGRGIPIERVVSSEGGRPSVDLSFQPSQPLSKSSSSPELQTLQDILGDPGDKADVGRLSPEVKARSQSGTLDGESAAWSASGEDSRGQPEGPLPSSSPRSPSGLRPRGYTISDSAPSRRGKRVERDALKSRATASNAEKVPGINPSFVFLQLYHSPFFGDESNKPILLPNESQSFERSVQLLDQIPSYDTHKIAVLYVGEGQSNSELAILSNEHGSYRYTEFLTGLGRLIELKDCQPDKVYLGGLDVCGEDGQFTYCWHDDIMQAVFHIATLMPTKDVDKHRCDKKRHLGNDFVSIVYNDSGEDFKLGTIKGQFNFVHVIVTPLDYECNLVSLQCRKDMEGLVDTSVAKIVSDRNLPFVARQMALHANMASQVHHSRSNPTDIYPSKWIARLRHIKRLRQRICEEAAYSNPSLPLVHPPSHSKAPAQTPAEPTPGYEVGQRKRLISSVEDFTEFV
UniProt O00141: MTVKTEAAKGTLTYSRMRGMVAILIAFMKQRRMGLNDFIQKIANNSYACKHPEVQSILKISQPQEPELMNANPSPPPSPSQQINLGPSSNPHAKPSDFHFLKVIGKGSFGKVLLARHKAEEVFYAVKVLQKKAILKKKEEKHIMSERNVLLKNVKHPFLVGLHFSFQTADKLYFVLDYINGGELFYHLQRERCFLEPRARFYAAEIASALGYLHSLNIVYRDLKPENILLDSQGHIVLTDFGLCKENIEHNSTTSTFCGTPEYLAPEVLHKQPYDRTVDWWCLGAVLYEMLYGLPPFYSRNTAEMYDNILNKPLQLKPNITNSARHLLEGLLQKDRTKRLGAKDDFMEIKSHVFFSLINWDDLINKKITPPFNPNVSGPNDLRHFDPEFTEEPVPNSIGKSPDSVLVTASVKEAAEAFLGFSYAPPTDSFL

Biological target: endogenous TSC2 (UniProt P49815)
Assay: co-immunoprecipitation from JIMT1 lysate with sheep anti-SGK1 antibody S062D

binding: binds
Substance: endogenous SGK1 (from UniProt O00141 1-431) (enzyme)
